Results as given in patent US20140235701.

By UniProt entry, the sequences of proteins in these tests, tags left out. Residues count along the entry.
UniProt P01138, 122-241: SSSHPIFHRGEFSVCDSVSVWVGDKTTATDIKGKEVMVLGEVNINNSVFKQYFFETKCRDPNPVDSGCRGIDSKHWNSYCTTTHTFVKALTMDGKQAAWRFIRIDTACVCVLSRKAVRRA

Molecular target: NGF (nerve growth factor) (Homo sapiens) (UniProt P01138)
Assay: activity in cells
Details: 2'-F C and U; 2'-OH G; 2'-H (deoxy) A; TF-1 cell proliferation inhibition; purified recombinant protein; protein details: R&D Systems

GGGUCCUGUCGCUAAGUUUCCGUCUUUGCGGCUGUUACCC [SEQ ID NO: 84]
IC50: > 0.01 µM
